Test results reported in publication PMC12475854.
Results are given in words; binding and its absence hold for the method and conditions named. In cells and extracts the contact can be indirect. Some entries that bind do so weakly or less than the wild type.

Sequences of proteins named here, by UniProt entry; tags and fusion partners are left off.
UniProt O08539: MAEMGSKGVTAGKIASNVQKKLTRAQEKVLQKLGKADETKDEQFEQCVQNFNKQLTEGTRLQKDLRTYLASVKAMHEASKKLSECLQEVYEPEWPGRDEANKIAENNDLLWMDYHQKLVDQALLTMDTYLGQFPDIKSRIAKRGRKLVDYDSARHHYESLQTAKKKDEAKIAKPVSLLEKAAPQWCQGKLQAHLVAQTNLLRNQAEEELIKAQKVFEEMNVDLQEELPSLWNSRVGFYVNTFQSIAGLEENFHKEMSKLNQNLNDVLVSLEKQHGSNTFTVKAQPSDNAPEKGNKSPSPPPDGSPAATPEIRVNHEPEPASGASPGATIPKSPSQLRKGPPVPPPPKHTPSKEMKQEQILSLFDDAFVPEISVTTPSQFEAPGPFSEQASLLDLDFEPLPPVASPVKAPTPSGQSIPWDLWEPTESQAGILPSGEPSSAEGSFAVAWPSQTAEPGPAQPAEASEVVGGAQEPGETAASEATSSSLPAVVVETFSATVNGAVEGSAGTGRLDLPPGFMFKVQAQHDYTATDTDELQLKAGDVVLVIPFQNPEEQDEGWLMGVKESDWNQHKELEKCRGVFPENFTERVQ
UniProt Q8CHC4: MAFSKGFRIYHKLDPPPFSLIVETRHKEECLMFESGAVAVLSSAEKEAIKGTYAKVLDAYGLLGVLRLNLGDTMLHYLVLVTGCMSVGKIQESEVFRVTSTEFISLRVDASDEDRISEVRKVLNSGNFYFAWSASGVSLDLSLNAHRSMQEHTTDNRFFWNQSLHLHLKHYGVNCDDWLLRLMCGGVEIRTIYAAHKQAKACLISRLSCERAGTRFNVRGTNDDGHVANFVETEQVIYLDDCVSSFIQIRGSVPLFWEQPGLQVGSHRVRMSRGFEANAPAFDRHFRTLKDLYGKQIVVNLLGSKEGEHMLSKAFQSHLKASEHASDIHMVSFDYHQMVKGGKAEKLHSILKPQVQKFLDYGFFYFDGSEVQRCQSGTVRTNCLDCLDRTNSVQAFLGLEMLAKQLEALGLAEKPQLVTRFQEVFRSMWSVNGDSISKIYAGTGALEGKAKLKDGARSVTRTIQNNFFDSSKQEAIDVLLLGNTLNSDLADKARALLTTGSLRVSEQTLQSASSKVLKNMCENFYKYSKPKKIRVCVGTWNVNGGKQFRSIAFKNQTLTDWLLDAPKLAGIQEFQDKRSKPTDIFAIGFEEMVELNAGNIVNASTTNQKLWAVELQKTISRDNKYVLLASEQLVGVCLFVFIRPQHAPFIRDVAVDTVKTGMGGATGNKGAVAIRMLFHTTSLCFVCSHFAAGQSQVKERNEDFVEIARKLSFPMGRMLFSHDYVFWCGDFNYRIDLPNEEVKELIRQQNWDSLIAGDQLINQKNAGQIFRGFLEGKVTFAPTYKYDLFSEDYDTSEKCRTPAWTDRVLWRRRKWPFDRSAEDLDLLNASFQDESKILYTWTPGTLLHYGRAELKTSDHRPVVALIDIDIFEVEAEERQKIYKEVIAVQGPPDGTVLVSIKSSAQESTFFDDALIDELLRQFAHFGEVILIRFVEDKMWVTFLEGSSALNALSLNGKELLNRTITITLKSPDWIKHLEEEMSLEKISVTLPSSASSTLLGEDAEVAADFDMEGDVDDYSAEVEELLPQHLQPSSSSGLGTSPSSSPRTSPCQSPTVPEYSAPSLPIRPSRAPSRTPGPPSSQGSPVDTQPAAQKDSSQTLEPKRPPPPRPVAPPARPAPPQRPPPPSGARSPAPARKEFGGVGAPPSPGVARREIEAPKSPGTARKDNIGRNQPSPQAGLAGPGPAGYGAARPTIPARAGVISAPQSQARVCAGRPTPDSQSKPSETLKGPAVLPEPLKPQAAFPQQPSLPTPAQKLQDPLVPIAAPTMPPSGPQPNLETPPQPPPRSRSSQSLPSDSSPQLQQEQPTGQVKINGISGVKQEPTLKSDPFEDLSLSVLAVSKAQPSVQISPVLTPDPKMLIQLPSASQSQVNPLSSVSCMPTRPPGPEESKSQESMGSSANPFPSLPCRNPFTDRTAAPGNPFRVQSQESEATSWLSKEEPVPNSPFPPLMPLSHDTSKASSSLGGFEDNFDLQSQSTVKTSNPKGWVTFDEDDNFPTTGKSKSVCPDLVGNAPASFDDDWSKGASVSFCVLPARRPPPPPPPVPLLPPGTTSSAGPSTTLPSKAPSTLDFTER

Target: endogenous mouse BIN1 (mouse (endogenous in N2a and mouse brain)) (UniProt O08539)
Test: proximity ligation; Duolink PLA on paraffin brain sections of Emx-Cre control mice with anti-BIN1 and an antibody against the partner; Emx-Cre:Bin1 knockout brain as negative control

- binding: binds
Substance: SYNJ1 (from UniProt Q8CHC4 1-1574)
